# Experimental data published in the supplement of paper PMC8728848.
# The list shows a part of the results.
# Tests used:
# Assay in all cases: glycan array binding signal (z-score within array); higher = stronger binding
# Settings in all cases: glycan notation: IUPAC condensed, linker removed
# [1] = biological target: Neu5Ac(a2-6)Gal(b1-4)GlcNAc(b1-2)Man(a1-3)[Neu5Ac(a2-6)Gal(b1-4)GlcNAc(b1-2)Man(a1-6)]Man(b1-4)GlcNAc(b1-4)GlcNAc
# Method in brief: (§1)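 Negative Z-scores can be read as non-binding. The Z-score is calculated within each array and then averaged across arrays of one protein sequence at different concentrations or buffers and across linkers. Arrays, 3228 in all, were curated from the Consortium for Functional Glycomics database and kept only where the protein sequence was available.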
# [2] = biological target: Neu5Ac(a2-6)Gal(b1-4)GlcNAc(b1-2)Man(a1-6)Man(b1-4)GlcNAc(b1-4)GlcNAc
# Method in brief: as §1
# [3] = biological target: Neu5Ac(a2-6)Gal(b1-4)GlcNAc(b1-2)Man(a1-6)[Gal(b1-4)GlcNAc(b1-2)Man(a1-3)]Man(b1-4)GlcNAc(b1-4)GlcNAc
# Method in brief: as §1
# [4] = biological target: Neu5Ac(a2-6)Gal(b1-4)GlcNAc(b1-2)Man(a1-6)[GlcNAc(b1-2)Man(a1-3)]Man(b1-4)GlcNAc(b1-4)GlcNAc
# Method in brief: as §1
# [5] = biological target: Neu5Ac(a2-6)Gal(b1-4)GlcNAc(b1-2)Man(a1-6)[Man(a1-3)]Man(b1-4)GlcNAc(b1-4)GlcNAc
# Method in brief: as §1
# [6] = biological target: Neu5Ac(a2-6)Gal(b1-4)GlcNAc(b1-3)Gal(b1-3)GlcNAc
# Method in brief: as §1
# [7] = biological target: Neu5Ac(a2-6)Gal(b1-4)GlcNAc(b1-3)Gal(b1-4)GlcNAc
# Method in brief: as §1
# [8] = biological target: Neu5Ac(a2-6)Gal(b1-4)GlcNAc(b1-3)Gal(b1-4)GlcNAc(b1-3)Gal(b1-4)GlcNAc
# Method in brief: as §1
# [9] = biological target: Neu5Ac(a2-6)Gal(b1-4)GlcNAc(b1-3)Gal(b1-4)[Fuc(a1-3)]GlcNAc(b1-3)Gal(b1-4)[Fuc(a1-3)]GlcNAc
# Method in brief: as §1
# [10] = biological target: Neu5Ac(a2-6)Gal(b1-4)GlcNAc(b1-3)GalNAc
# Method in brief: as §1
# [11] = biological target: Neu5Ac(a2-6)Gal(b1-4)GlcNAc6S
# Method in brief: as §1
# [12] = biological target: Neu5Ac(a2-6)GalNAc
# Method in brief: as §1
# [13] = biological target: Neu5Ac(a2-6)GalNAc(b1-4)GlcNAc
# Method in brief: as §1
# [14] = biological target: Neu5Ac(a2-6)GlcNAc(b1-4)GlcNAc
# Method in brief: as §1
# [15] = biological target: Neu5Ac(a2-6)GlcNAc(b1-4)GlcNAc(b1-4)GlcNAc
# Method in brief: as §1
# [16] = biological target: Neu5Ac(a2-8)Neu5Ac
# Method in brief: as §1
# [17] = biological target: Neu5Ac(a2-8)Neu5Ac(a2-3)Gal(b1-4)Glc
# Method in brief: as §1
# [18] = biological target: Neu5Ac(a2-8)Neu5Ac(a2-3)[GalNAc(b1-4)]Gal(b1-4)Glc
# Method in brief: as §1
# [19] = biological target: Neu5Ac(a2-8)Neu5Ac(a2-8)Neu5Ac
# Method in brief: as §1
# [20] = biological target: Neu5Ac(a2-8)Neu5Ac(a2-8)Neu5Ac(a2-3)Gal(b1-4)Glc
# Method in brief: as §1
# [21] = biological target: Neu5Ac(a2-8)Neu5Ac(a2-8)Neu5Ac(a2-3)[GalNAc(b1-4)]Gal(b1-4)Glc
# Method in brief: as §1
# [22] = biological target: Neu5Ac(a2-8)Neu5Ac(a2-8)Neu5Ac(a2-8)Neu5Ac(a2-3)[GalNAc(b1-4)]Gal(b1-4)Glc
# Method in brief: as §1
# [23] = biological target: Neu5Ac(b2-6)Gal(b1-4)GlcNAc
# Method in brief: as §1
# [24] = biological target: Neu5Ac(b2-6)GalNAc
# Method in brief: as §1
# [25] = biological target: Neu5Ac9Ac(a2-3)Gal(b1-3)GlcNAc
# Method in brief: as §1
# [26] = biological target: Neu5Ac9Ac(a2-3)Gal(b1-4)GlcNAc
# Method in brief: as §1
# [27] = biological target: Neu5Ac9Ac(a2-6)Gal(b1-4)GlcNAc
# Method in brief: as §1
# [28] = biological target: Neu5Gc(a2-3)Gal(b1-3)GlcNAc
# Method in brief: as §1
# [29] = biological target: Neu5Gc(a2-3)Gal(b1-3)[Fuc(a1-4)]GlcNAc
# Method in brief: as §1
# [30] = biological target: Neu5Gc(a2-3)Gal(b1-4)Glc
# Method in brief: as §1
# [31] = biological target: Neu5Gc(a2-3)Gal(b1-4)GlcNAc
# Method in brief: as §1
# [32] = biological target: Neu5Gc(a2-3)Gal(b1-4)[Fuc(a1-3)]GlcNAc
# Method in brief: as §1
# [33] = biological target: Neu5Gc(a2-6)Gal(b1-4)GlcNAc
# Method in brief: as §1
# [34] = biological target: Neu5Gc(a2-6)GalNAc
# Method in brief: as §1
# [35] = biological target: Neu5Gc(b2-6)Gal(b1-4)GlcNAc
# Method in brief: as §1
binder,measurement,setting,value
"AcfC (Vibrio cholerae), Q57410 (protein) MKSKNRFLLISLLSFSTSVFADVNLYGPGGPHVPLIKVAESFEKSQSKRVNITFGPQATWNDKAKKNADILFGASEHSALAIAEGHSERFSKFNIHPVFMREAIILVKKGNPKNIKGMADLLKPGIGIVVNDGAGVSNTSGTAVWEDSVGRMKNVEKLQAFRSNIHVFAPNSGSARKAFVDGEDIDAWITWVDWAIANPTIGDMVRMEDEYRIYRDFNVVLAKNPSSEAIDFFDYLTKSKDAEAIFQHYGWFK",glycan array binding signal (z-score),[1],0.559
same,glycan array binding signal (z-score),[2],0.114
same,glycan array binding signal (z-score),[3],-0.314
same,glycan array binding signal (z-score),[4],-1.18
same,glycan array binding signal (z-score),[5],-0.567
same,glycan array binding signal (z-score),[6],-0.356
same,glycan array binding signal (z-score),[7],-0.343
same,glycan array binding signal (z-score),[8],-0.301
same,glycan array binding signal (z-score),[9],0.447
same,glycan array binding signal (z-score),[10],-0.94
same,glycan array binding signal (z-score),[11],0.136
same,glycan array binding signal (z-score),[12],-1.62
same,glycan array binding signal (z-score),[13],-0.666
same,glycan array binding signal (z-score),[14],-0.781
same,glycan array binding signal (z-score),[15],0.443
same,glycan array binding signal (z-score),[16],0.214
same,glycan array binding signal (z-score),[17],-0.126
same,glycan array binding signal (z-score),[18],-0.835
same,glycan array binding signal (z-score),[19],-0.292
same,glycan array binding signal (z-score),[20],0.225
same,glycan array binding signal (z-score),[21],-0.786
same,glycan array binding signal (z-score),[22],0.753
same,glycan array binding signal (z-score),[23],-0.194
same,glycan array binding signal (z-score),[24],-0.737
same,glycan array binding signal (z-score),[25],-0.008
same,glycan array binding signal (z-score),[26],-1.48
same,glycan array binding signal (z-score),[27],-0.009
same,glycan array binding signal (z-score),[28],-0.149
same,glycan array binding signal (z-score),[29],-0.461
same,glycan array binding signal (z-score),[30],0.347
same,glycan array binding signal (z-score),[31],-0.421
same,glycan array binding signal (z-score),[32],-0.11
same,glycan array binding signal (z-score),[33],-0.173
same,glycan array binding signal (z-score),[34],-0.625
same,glycan array binding signal (z-score),[35],2.14

# Shown tab-delimited: entries from further up.
binder	measurement	setting	value
AcfC (Vibrio cholerae), Q57410 (protein) MKSKNRFLLISLLSFSTSVFADVNLYGPGGPHVPLIKVAESFEKSQSKRVNITFGPQATWNDKAKKNADILFGASEHSALAIAEGHSERFSKFNIHPVFMREAIILVKKGNPKNIKGMADLLKPGIGIVVNDGAGVSNTSGTAVWEDSVGRMKNVEKLQAFRSNIHVFAPNSGSARKAFVDGEDIDAWITWVDWAIANPTIGDMVRMEDEYRIYRDFNVVLAKNPSSEAIDFFDYLTKSKDAEAIFQHYGWFK	glycan array binding signal (z-score)	[28]	-0.149
same	glycan array binding signal (z-score)	[29]	-0.461
